These are yes or no findings as the source states them, for the method shown.
Columns and labels:
[1] = molecular target: Abl2 (murine, residues 74-1182, as used in SEC-MALS and turbidity assays) (murine) (UniProt Q4JIM5); experiment: SEC-MALS
[2] = molecular target: 557-C (Abl2 C-terminal half, as used in SEC and SEC-MALS) (murine) (UniProt Q4JIM5); experiment: SEC-MALS

binding [1]	binding [2]	Molecule
no binding		Abl2 (murine, residues 74-1182, as used in SEC-MALS and turbidity assays) (from UniProt Q4JIM5 74-1182)
	no binding	557-C (Abl2 C-terminal half, as used in SEC and SEC-MALS) (domain or fragment, UniProt Q4JIM5 557-1182) GRTASSSSVVPYLPRLPLLPSKTRTLRKQGENKENLDGGLDAAESLASSSAPAGFIRSTQASSGSPALPRKQRDKSPSSLLEDAKETCFTRDRKGGFFSSFMKKRNAPTPPKRSSSFREMENQPHKKYELTGNFSPVASLQNADGFSVAPSQQEPNLVPAKCYGGSFAQRNLCADDDSGGGGGSGTAGGGWSGITGFFTPRLIKKTLGLRAGKPTASDDTSKPFPRSNSTSSMSSGLPEQDRMAMTLPRNCQRSKLQLERTVSTSSQPEENVDRANDMLPKKSEEGAAPARERPKAKLLPRGATALPLRAPDPAITESDSPGVGVAGVAAAPKGKERNGGTRLGVAGVPEDGEQLGWSSPAKAVAVLPTTHNHKVPVLISPTLKHTPADVQLIGTDSQGNKFKLLSEHQVTSSGDKDRPRRVKPKCAPPPPPVMRLLQHPSTCSDPEEEPTAPPAGQHTPETQEGGKKAAPGPVPSSGKPGRPVMPPPQVPLPTSSISPAKMANGTAGTKVALRKTKQAAEKISADKISKEALLECADLLSSAITEPVPNSQLVDTGHQLLDYCSGYVDSIPQTRNKFAFREAVSKLELSLQELQVSSTAAGVPGTNPVLNNLLSCVQEISDVVQR
